Results are given in words; binding and its absence hold for the method and conditions named. Binding seen in cells or lysates may run through a third protein. Some entries that bind do so weakly or less than the wild type.

Chains of the proteins cited; added tags and fusions are not shown.
UniProt Q8TEB1: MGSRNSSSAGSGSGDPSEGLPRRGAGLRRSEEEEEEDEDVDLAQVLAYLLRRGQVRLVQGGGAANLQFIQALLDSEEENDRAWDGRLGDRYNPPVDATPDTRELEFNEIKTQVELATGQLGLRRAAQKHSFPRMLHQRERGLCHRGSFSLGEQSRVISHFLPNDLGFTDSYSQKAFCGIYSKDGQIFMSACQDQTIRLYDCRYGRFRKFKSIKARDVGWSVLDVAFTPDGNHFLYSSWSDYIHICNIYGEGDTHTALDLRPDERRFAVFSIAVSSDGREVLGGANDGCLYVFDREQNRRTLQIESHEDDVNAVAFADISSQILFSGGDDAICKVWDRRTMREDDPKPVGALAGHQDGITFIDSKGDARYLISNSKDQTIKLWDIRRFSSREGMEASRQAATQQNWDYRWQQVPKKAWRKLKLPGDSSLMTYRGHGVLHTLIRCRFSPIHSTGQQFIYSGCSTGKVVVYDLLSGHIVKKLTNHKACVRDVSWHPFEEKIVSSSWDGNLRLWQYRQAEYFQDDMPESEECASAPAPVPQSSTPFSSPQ
UniProt Q16531: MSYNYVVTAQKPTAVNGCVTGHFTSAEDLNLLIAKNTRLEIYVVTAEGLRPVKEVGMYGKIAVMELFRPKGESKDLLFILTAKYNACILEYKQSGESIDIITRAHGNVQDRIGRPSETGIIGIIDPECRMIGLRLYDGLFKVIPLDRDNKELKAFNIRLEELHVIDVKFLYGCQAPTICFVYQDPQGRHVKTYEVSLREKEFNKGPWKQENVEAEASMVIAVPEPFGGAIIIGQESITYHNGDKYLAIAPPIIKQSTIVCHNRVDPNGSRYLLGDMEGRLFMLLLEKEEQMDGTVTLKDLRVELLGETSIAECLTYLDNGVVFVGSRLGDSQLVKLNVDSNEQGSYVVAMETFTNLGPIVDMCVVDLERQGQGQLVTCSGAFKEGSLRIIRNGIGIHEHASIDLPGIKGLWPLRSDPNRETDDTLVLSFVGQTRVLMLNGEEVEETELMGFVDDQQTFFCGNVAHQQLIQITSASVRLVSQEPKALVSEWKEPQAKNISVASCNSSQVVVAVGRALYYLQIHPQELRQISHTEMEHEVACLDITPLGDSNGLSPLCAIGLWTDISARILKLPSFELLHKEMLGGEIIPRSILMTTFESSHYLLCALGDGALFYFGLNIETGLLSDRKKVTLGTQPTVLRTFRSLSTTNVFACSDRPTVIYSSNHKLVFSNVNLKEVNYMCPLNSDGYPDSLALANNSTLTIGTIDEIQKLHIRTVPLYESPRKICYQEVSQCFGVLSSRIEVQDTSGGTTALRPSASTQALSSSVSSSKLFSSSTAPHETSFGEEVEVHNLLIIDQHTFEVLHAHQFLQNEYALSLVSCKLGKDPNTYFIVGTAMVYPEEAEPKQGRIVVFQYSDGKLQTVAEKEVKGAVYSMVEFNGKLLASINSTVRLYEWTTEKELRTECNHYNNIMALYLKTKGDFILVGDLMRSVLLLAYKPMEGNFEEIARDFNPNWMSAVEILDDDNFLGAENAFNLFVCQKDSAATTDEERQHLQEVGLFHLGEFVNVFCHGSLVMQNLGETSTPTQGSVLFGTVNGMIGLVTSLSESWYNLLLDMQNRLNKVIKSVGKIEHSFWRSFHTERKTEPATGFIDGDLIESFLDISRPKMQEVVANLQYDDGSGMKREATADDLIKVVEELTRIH
UniProt Q13619: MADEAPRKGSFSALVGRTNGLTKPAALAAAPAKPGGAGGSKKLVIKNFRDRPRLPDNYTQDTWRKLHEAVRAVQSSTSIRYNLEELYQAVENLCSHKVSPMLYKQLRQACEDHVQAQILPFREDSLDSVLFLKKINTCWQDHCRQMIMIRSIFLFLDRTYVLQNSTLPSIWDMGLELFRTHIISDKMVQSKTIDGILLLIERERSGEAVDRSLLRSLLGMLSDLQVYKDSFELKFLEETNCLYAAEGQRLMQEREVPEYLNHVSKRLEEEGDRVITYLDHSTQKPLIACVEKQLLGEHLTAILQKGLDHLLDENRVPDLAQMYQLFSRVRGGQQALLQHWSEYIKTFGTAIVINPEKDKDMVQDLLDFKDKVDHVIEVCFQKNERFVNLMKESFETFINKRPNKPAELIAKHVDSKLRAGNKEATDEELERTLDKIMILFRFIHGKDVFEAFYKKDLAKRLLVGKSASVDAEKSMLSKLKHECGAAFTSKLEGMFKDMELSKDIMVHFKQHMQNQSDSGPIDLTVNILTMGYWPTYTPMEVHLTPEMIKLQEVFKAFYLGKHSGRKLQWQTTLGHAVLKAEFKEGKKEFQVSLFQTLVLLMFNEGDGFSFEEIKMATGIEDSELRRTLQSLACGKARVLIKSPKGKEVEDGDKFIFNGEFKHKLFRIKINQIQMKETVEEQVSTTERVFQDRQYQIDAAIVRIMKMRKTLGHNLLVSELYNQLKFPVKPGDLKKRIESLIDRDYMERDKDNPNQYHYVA

This assay deals with GFP-WDR23 isoform I (human) (human) (UniProt Q8TEB1). In words: co-IP; GFP-tagged protein immunoprecipitated with GFP trap magnetic agarose beads (Chromotek) from transfected HEK-293T lysate; 0.5% CHAPS buffer (10 mM Tris/Cl pH 7.5, 150 mM NaCl, 0.5 mM EDTA); Western blot. Background: In western blotting, separated proteins are transferred to a membrane and probed.

Consider DDB1 (from UniProt Q16531 1-1140), for which the binding result is listed as “binds”.

As for CUL4A (from UniProt Q13619 1-759), the binding result is recorded as “binds”.

(Values after PMC6692315.)
